The values below come from patent US20180264108A1 (ENCARE BIOTECH B V, published 2018).

The target of the assay is immunizing peptide … (SEQ ID NO: 27). The assay is described as follows: PEPSCAN ELISA on overlapping linear and CLIPS peptides based on SEQ ID NO:27. On the technique in general: ELISA stands for enzyme-linked immunosorbent assay.

No constants are given. Whether binding was seen depends on the method and setting. Some entries that bind do so weakly or less than the wild type.

B1: antibody 33E3.10 (antibody, V domains shown)
VH: EVKLVESGGGLVKPGGSLKLSCAASGFTFSNSAMTWVRQTPEKRLEWVASISGGGTTYYPDSVKGRFTISRDNARNILYLQMSSLRSEDTAIYYCARSHYWGQGTTLTVSS
VL: DIVMTQSQKFMSTSIGDRVSVTCKASQNVVTNVAWYQQKPGQSPKALIYSASYRYSGVPDRFTGSGSGTDFTLTISNVQSEDLAEYFCQQYNSYPYTFGGGTKLEIK
As for B1, the binding entry is “binds”.
